Assay results as given in article PMC7819943, “Rice protein-binding microarrays: a tool to detect cis-acting elements near promoter regions in rice”.
The list shows a part of the results.

Target: T1, OsSMF1 (Oryza sativa, UniProt Q6ZLB0 1-436)
T1 sequence: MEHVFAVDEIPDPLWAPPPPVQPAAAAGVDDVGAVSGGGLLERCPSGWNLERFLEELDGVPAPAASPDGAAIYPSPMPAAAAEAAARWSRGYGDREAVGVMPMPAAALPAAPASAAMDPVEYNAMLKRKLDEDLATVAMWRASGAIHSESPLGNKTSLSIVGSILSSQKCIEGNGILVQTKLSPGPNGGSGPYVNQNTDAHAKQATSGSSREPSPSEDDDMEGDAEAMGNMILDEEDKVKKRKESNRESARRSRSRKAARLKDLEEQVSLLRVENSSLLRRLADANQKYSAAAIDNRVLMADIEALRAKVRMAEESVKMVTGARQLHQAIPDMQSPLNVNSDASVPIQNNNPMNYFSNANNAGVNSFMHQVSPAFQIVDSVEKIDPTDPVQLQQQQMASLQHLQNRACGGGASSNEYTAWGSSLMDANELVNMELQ
Assay: protein-binding microarray (RPBM); PBS, 2% BSA, 51.3 ng/ul salmon testes DNA, 50 uM zinc acetate, 200 nM TF, 25 C, 1 h; high values mean tight binding
Conditions: protein: recombinant; tags: N-terminal polyhistidine and DsRed monomer fusion (pET32a); chain copies: 2; label: CyDye5-dUTP incorporated in the synthesized complementary strand; 3' TTTTT single-stranded linker to array surface; dsDNA, one strand shown
Outline: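 Transcription factors were made in E. coli BL21-CodonPlus as N-terminal fusions to a polyhistidine tag and DsRed, then purified on Ni–NTA. After primer extension with Cy5-dUTP and blocking with 2% BSA, a custom Agilent array was exposed for 1 h at 25 °C to 200 nM protein in PBS, 2% BSA, salmon testes DNA and 50 µM zinc acetate. Washed arrays were scanned on an Axon 4000B, and the binding signal is per-feature fluorescence intensity in arbitrary units.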

Compared with “AACGGAGAGGGAGGAGTTGGGATCAATGTGGAGGTCCTTGCGGAGTCACCTAGTGCAG”, “AGTACATGAATCCGGATGGATAGGTTCTACCACGTGGAATCGGAGTCACCTAGTGCAG” is higher in binding signal: 3180 fluorescence intensity (a.u.) for the first, 7950 fluorescence intensity (a.u.) for the second.

First: TAATCAAGATGAGAGGTGAGTGATCGATGTACGTTGTTTGCGGAGTCACCTAGTGCAG
Second: TATCTGCAAGCATCATCTATTCTTCCAGCGTATAAGTACCCGGAGTCACCTAGTGCAG
The binding signal of the first is higher: 3560 fluorescence intensity (a.u.) for the first, 3400 fluorescence intensity (a.u.) for the second.

First: TGCAAGTTGGGAGTCATGATTTCTGGTATTGCGGTTCAGGCGGAGTCACCTAGTGCAG
Second: TTTAGCATAGTCCAGTCAACTCATAGCACAATTCTCAATCCGGAGTCACCTAGTGCAG
The binding signal of the first is higher: 3680 fluorescence intensity (a.u.) for the first, 3620 fluorescence intensity (a.u.) for the second.

First: ACTTTACCCTAGTGGTGGCGTGGATCGGCAAAGTTGGGCCCGGAGTCACCTAGTGCAG
Second: CCTGCCCGTTTCAGACCTCGGCGCGTGCACATATATACCACGGAGTCACCTAGTGCAG
The binding signal of the first is lower: 4330 fluorescence intensity (a.u.) for the first, 26300 fluorescence intensity (a.u.) for the second.

Going from “ACAGATGTTATTGTTGCTGCTCCACCGTGGAGGCGCTAGTCGGAGTCACCTAGTGCAG” to “GATGAGTGGATAATGTGTCTCTTCCAGTTGGATGAGTAAGCGGAGTCACCTAGTGCAG”, the binding signal falls from 4230 fluorescence intensity (a.u.) to 3370 fluorescence intensity (a.u.).

First: GACTACCATTTTAAGAAGTACAGTGTCATCAGGCACCAGCCGGAGTCACCTAGTGCAG
Second: TACATTCTCTACATTTGTGCCACCAACACAGTTTGTAATGCGGAGTCACCTAGTGCAG
The binding signal of the first is lower: 3500 fluorescence intensity (a.u.) for the first, 4180 fluorescence intensity (a.u.) for the second.

Going from “TGATGTGAACTTAACTTGTCTTACGTGGATGATTCCGTGTCGGAGTCACCTAGTGCAG” to “GAGTATGGTTGTTATGCATGACAGCGGCTTATAGTCGACTCGGAGTCACCTAGTGCAG”, the binding signal falls from 13100 fluorescence intensity (a.u.) to 3940 fluorescence intensity (a.u.).

First: CCGTCTCCTCTGCTTCTCCCACAGCTCCGGCGACAATCCACGGAGTCACCTAGTGCAG
Second: CGAAAAGAAAATTATCCTTTGATATGTTGCAAATCAAGTGCGGAGTCACCTAGTGCAG
The binding signal of the first is lower: 3230 fluorescence intensity (a.u.) for the first, 29100 fluorescence intensity (a.u.) for the second.

Going from “CGCTCAACGCATGCCTTGCGAGACCGGCAAAGCCATTTCCCGGAGTCACCTAGTGCAG” to “ACGGTATGAATTTTGCGTCTGGGCACCTGAACGACGAACACGGAGTCACCTAGTGCAG”, the binding signal falls from 19900 fluorescence intensity (a.u.) to 5120 fluorescence intensity (a.u.).

Compared with “AGCGCGGTGACCGCGTCCACGTGGTGCACCCAGGTGCACCCGGAGTCACCTAGTGCAG”, “ACAAAAGCACCCGTTCTTTTAAGTAATCATCGCTCGTGCACGGAGTCACCTAGTGCAG” is lower in binding signal: 4140 fluorescence intensity (a.u.) for the first, 3210 fluorescence intensity (a.u.) for the second.

Compared with “CTATCTCTCACACTGATCCAGGCTCTCTCCACTACTATATCGGAGTCACCTAGTGCAG”, “GTTAATTGCAGGCTTGTTTGGAAACTTCACACAAATTTTGCGGAGTCACCTAGTGCAG” is higher in binding signal: 3360 fluorescence intensity (a.u.) for the first, 4480 fluorescence intensity (a.u.) for the second.

Compared with “GTTCTCCCGGTGAAATATACTGTTCGCTGCTTTTGTGTGCCGGAGTCACCTAGTGCAG”, “TCTTTTGGTTTACAACACTTTGTATGCTAGCATTATTTTGCGGAGTCACCTAGTGCAG” is lower in binding signal: 3530 fluorescence intensity (a.u.) for the first, 3420 fluorescence intensity (a.u.) for the second.

Going from “CCACTCAACCTGTCCCCACCACGTCAGTGACTCACTACCCCGGAGTCACCTAGTGCAG” to “TGATGGAGCTCACGCTGGCCGACCTGGCCGAGGCCACGTCCGGAGTCACCTAGTGCAG”, the binding signal falls from 10400 fluorescence intensity (a.u.) to 3440 fluorescence intensity (a.u.).

Compared with “ATGCTGGCGCGTGGTAGCCCAACAATCCCAATCCCCAAATCGGAGTCACCTAGTGCAG”, “AACTTATTCCGGATGTCATATAGGTTCAAATGGGCCTCAGCGGAGTCACCTAGTGCAG” is higher in binding signal: 4040 fluorescence intensity (a.u.) for the first, 18300 fluorescence intensity (a.u.) for the second.

First: TTGTTCCACCCTTCACCTGACCACGTGTGCTCCACCCGGCCGGAGTCACCTAGTGCAG
Second: TACCGTCTTGTGAATTGTGATGTGGAACTGTCAACCGTGTCGGAGTCACCTAGTGCAG
The binding signal of the first is higher: 9970 fluorescence intensity (a.u.) for the first, 4900 fluorescence intensity (a.u.) for the second.

First: CACCTCTAAGATACATGGAATACTACATAGGTCCTGTTTGCGGAGTCACCTAGTGCAG
Second: ATGGCAGGACAGCTCACTAACCTGGGAATTGTGTCATGGACGGAGTCACCTAGTGCAG
The binding signal of the first is higher: 4260 fluorescence intensity (a.u.) for the first, 3220 fluorescence intensity (a.u.) for the second.

First: AATAAATTCTCACAAACTCTTTAGGAAACTGATGTGGTAACGGAGTCACCTAGTGCAG
Second: GAATTGCACTCCAGGACCATGGGGTTGAAATTTAGTACCTCGGAGTCACCTAGTGCAG
The binding signal of the first is higher: 3420 fluorescence intensity (a.u.) for the first, 3210 fluorescence intensity (a.u.) for the second.

Going from “TCCTCCTTCCCGGCGTCGGTGACGGTGACGAACTAGGTTTCGGAGTCACCTAGTGCAG” to “TACTAGGTAATGTCTCATCATGTACTAGTTAGCTATATTTCGGAGTCACCTAGTGCAG”, the binding signal falls from 4140 fluorescence intensity (a.u.) to 4000 fluorescence intensity (a.u.).

First: AAGTTATAACGACTAGAATAGTTAGCATTAACACGTATCACGGAGTCACCTAGTGCAG
Second: CTACATTCATGATGCATAAATTTATGATGTGGATGCAAATCGGAGTCACCTAGTGCAG
The binding signal of the first is lower: 3840 fluorescence intensity (a.u.) for the first, 3960 fluorescence intensity (a.u.) for the second.

First: CGTCGGCACCATCCCCGACGTGGCCAGCTTTCTCATCTCGCGGAGTCACCTAGTGCAG
Second: GCATCTTTCGAAGTATATGACTCATCTGAACAACTTGCAACGGAGTCACCTAGTGCAG
The binding signal of the first is higher: 6330 fluorescence intensity (a.u.) for the first, 5980 fluorescence intensity (a.u.) for the second.

First: GGAGATACTGGCACGTAAGGTGCTGACAAAGCCTGTTGAGCGGAGTCACCTAGTGCAG
Second: TTTATAAAGCTGCCAAATAAAATTTATGTTTAGTTTGTTACGGAGTCACCTAGTGCAG
The binding signal of the first is higher: 6000 fluorescence intensity (a.u.) for the first, 3620 fluorescence intensity (a.u.) for the second.
